According to PubChem BioAssay AID434947 (Broad Institute, 2010):
Screen size: about 2,200 compounds; about 15 (0.7%) were called active.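 How the source made its calls: active means fitted half-maximal concentration for loss of luminescence signal no more than a set limit of log units above the top tested concentration; inconclusive means flat fit with 30 to 70% signal loss, or invalid fit; inactive means half-maximal concentration above that set limit.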 The list shows a part of the results.

Assay: ADP-Glo luciferase signal interference – biochemical, luminescence, cell-free, homogeneous, artefact control for GSK3beta inhibitor project, dose response (AID 434947);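 further: kinase-free counter screen of ADP-Glo detection reagents for GSK3beta hits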
Details: Cell-free ADP-Glo reagents, 5 uM ADP

EC50, inactive:
CNc1nc2c(N)ncnc2n1[C@H]1O[C@@H](CO)[C@H](O)[C@@H]1O > 30 µM, COc1ccc2nc(C)cc(Nc3ccc(N4CCN(C)CC4)cc3)c2c1 > 30 µM, COc1cccc(C(CC(=O)NCc2ccco2)NS(=O)(=O)c2ccc(C)cc2)c1OC (configuration not stated) > 30 µM, CCN1CCN(c2ccc(S(=O)(=O)N3CCOCC3)cc2NC(=O)c2ccc(Cl)cc2Cl)CC1 > 30 µM, Cc1ccc(Sc2ccc(/C=N/O)cc2[N+](=O)[O-])cc1 > 30 µM, N#Cc1c(-c2ccccc2)nc(SCC(=O)N(c2ccccc2)c2ccccc2)[nH]c1=O > 30 µM, O=C(CCc1ccccc1)Nc1ccc2c(c1)OCCO2 > 30 µM, COc1ccc(CCN(C)C(=O)c2ccc(S(=O)(=O)Nc3ccccc3C)cc2)cc1OC > 30 µM, c1ccc(CSc2ccc3nnc(-c4cccnc4)n3n2)cc1 > 30 µM, Cc1cn(C2OC(COC(=O)c3ccccc3)C(O)C2O)c(=O)[nH]c1=O (configuration not stated) > 30 µM, COc1ccc(-c2noc(CSc3nnc(-c4ccccc4)n3C)n2)cc1 > 30 µM, CCOC(=O)c1c(-c2ccccc2)oc2ccc(OCC(=O)NNC(=O)CCCC(=O)O)cc12 > 30 µM, CCOC(=O)C1=C(CN2CCSCC2)NC(=O)NC1c1cc(C)ccc1C (configuration not stated) > 30 µM, CSc1nc(NCCCN(C)C)c2c3c(sc2n1)CN(C)CC3 > 30 µM, c1cncc(-c2nc(NCCCn3ccnc3)c3ccccc3n2)c1 > 30 µM, Cc1c(C#N)c(O)[nH]c(=O)c1N=Nc1ccc(Br)cc1C(=O)O > 30 µM, CC1(C)Oc2ccc(C(=O)N3CCOCC3)cc2N(CC(=O)N2CCOCC2)C1=O > 30 µM, CN1CCc2c(sc3c2c(=O)n(-c2ccccc2)c2nnc(SCc4ccc(Cl)cc4)n32)C1 > 30 µM, CCOC(=O)c1cnc2ccc(OC)cc2c1NCCc1ccc(OC)c(OC)c1 > 30 µM, COCCN=C1Sc2nc3c(C)cccc3cc2CN1Cc1ccco1 > 30 µM, COC(=O)c1sc(=S)n(Cc2ccccc2)c1C > 30 µM, N/C(Cc1nc2ccccc2s1)=N\O > 30 µM, CCOc1cc(C2Nc3ccccc3NC3=C2C(=O)CC(C)(C)C3)ccc1O (configuration not stated) > 30 µM, CSc1nc2ncc3c(n2n1)CC1c2ccccc2CCN1C3=O (configuration not stated) > 30 µM, Cc1cc(C)n(S(=O)(=O)c2ccc(C)c(C)c2)n1 > 30 µM, O=C(c1cccnc1)C1CCCN(Cc2nc(Cc3ccccc3)no2)C1 (configuration not stated) > 30 µM, Cn1nnc2sc3c(c2c1=O)CCCC3 > 30 µM, C=CCN1C(=O)C(Cc2ccc(Br)cc2)S/C1=N\N=C\c1ccco1 (configuration not stated) > 30 µM, COC(=O)c1cccc(Nc2nc(-c3ccncc3)nc3ccccc23)c1 > 30 µM, Clc1ccccc1CSc1nnc(-c2ccncc2)o1 > 30 µM, CCCOC1CCCN(Cc2cn(C)nc2-c2ccccc2F)C1 (configuration not stated) > 30 µM, CCCCC(=O)Nc1ccc(C(=O)NNC(=O)CCCOc2ccc(Cl)cc2Cl)cc1 > 30 µM, COCCn1c(SCC(=O)Nc2ccc(S(N)(=O)=O)cc2)nc2ccccc21 > 30 µM, Nc1nc(NC2CCCCC2)nc(NCCO)c1[N+](=O)[O-] > 30 µM, Cc1ccccc1-n1nnc2c(=O)oc3ccccc3c21 > 30 µM, COc1ccccc1/C=C/C=C1\Oc2c(ccc(O)c2CN2CCN(CCO)CC2)C1=O > 30 µM, CCc1nnc(NC(=O)c2cc(-c3ccccc3)nn2-c2ccccc2)s1 > 30 µM, Nc1nc(NCCO)nc(NCC2CCCO2)c1[N+](=O)[O-] (configuration not stated) > 30 µM, CSc1nc(NCC(C)O)c2c3c(sc2n1)CN(C)CC3 (configuration not stated) > 30 µM, CCCCCCNC(=O)C(C(=O)OCC)C1CCCCC1 (configuration not stated) > 30 µM, CCCCc1cc(=O)oc2cc(C)cc(OCc3nn[nH]n3)c12 > 30 µM, O=C(Nc1ccc(O)c2c(=O)cc(-c3ccccc3Cl)oc12)c1ccc(F)cc1 > 30 µM, Cc1cccc(Nc2nc(NCC3CCCO3)nc(N)c2[N+](=O)[O-])c1 (configuration not stated) > 30 µM, Cc1c(CCOC(=O)CC23CC4CC(CC(C4)C2)C3)sc[n+]1CC(=O)c1ccc(Br)cc1 > 30 µM, CN(C)c1nc(N)c([N+](=O)[O-])c(NCCO)n1 > 30 µM, O=C(CN1C(=O)CCC1=O)Nc1cccc(NC(=O)CN2C(=O)CCC2=O)c1 > 30 µM, O=C(Cc1ccc(Cl)cc1)Nc1ncc([N+](=O)[O-])s1 > 30 µM, COc1cc(C(c2nnnn2C(C)(C)C)N2CCN(c3nc4ccccc4s3)CC2)ccc1O (configuration not stated) > 30 µM, COc1cccc2cc(C(=O)NCc3ccccc3Br)c(=O)oc12 > 30 µM, COc1ccc(CCNc2c(C=O)c(=O)[nH]c3ccccc23)cc1OC > 30 µM, COC(=O)c1nnn(-c2nonc2N)c1CSc1nnc(C)s1 > 30 µM, Cc1c(Cl)cccc1NC(=S)N(C)CCC#N > 30 µM, O=C(O)CCn1cc(C(=O)O)c(-c2ccccc2)n1 > 30 µM, Cc1ccc(-c2nn(-c3ccccc3)cc2/C=N/n2c(-c3cccs3)n[nH]c2=S)cc1 > 30 µM, CCOC(=O)c1c(S(=O)(=O)NCC(=O)NCc2ccc(C)cc2)c(C)n(C)c1C > 30 µM, CCCn1nc(NC(=O)C2CCCO2)c2cc3ccc(C)cc3nc21 (configuration not stated) > 30 µM, Cc1ccc2c(c1)NC(=O)c1cc([N+](=O)[O-])ccc1O2 > 30 µM, CC(=O)c1ccc(NC(=O)CN2C(=O)CCC2=O)cc1 > 30 µM, Cc1ccc(S(=O)(=O)NC(=NC(C)C(=O)O)c2ccccc2)cc1 (configuration not stated) > 10 µM, CCc1nc2oc3cc(OC)ccc3c(=O)c2c(=O)n1Cc1ccccc1 > 30 µM, Clc1ccc2[nH]c3c(c2c1)CCc1cn[nH]c1-3 > 30 µM, CCOC(=O)c1cnc2ccc(OC)cc2c1Nc1ccc(N2CCN(C)CC2)cc1 > 30 µM, COc1ccccc1N1CCN(C(=O)Cn2nnc(-c3ccncc3)n2)CC1 > 30 µM, CCOC(=O)c1cnc2ccc(C)cc2c1Nc1ccc(N2CCOCC2)cc1 > 30 µM, O=C(c1ccncc1)N1CCN(C(=O)c2ccco2)CC1 > 30 µM, Oc1ccc2oc3c(c2c1)CCCC3 > 30 µM, O/N=C/c1ccc(OCc2ccccc2)c(Cl)c1 > 30 µM, CC[n+]1c(/C=C/N(C)c2ccccc2)oc2ccc(Cl)cc21 > 30 µM, COc1ccc2cc(C(=O)CS(=O)(=O)c3ccccc3)c(=O)oc2c1 > 30 µM, CCN(CCNC(=O)CN(C)S(=O)(=O)c1cccc2nsnc12)c1ccccc1 > 30 µM, CCOC(=O)c1cnc2c(C)cccc2c1Nc1ccc(N2CCOCC2)cc1 > 30 µM, CCOCCOC(=O)c1ccc(-n2cnc(C)n2)nc1 > 30 µM, COc1cc(/C=N/Nc2ccc([N+](=O)[O-])cn2)cc(OC)c1O > 30 µM, CNC(=O)c1ccsc1NC(=O)C1CCN(S(=O)(=O)c2ccc(Cl)s2)CC1 > 30 µM, O=C(Nc1ccnc(-c2cccnc2)n1)c1ccc(Cl)c(Cl)c1 > 30 µM, O=C(NCc1ccco1)C(=O)c1cn(CC(=O)N2CCCC2)c2ccccc12 > 30 µM, CNc1nc(N)c([N+](=O)[O-])c(NCCO)n1 > 30 µM, CCOc1ccc(C2=CSC3=NCCN23)cc1[N+](=O)[O-] > 30 µM, O=C(O)CC1S/C(=N/N=C/c2ccc(-c3ccc(Cl)c([N+](=O)[O-])c3)o2)NC1=O (configuration not stated) > 30 µM, CC(=O)N1CCc2c(sc(NC(=O)C3CCCCC3)c2C(N)=O)C1 > 30 µM, CC1(C)CC(=O)C=C(Nc2ccccc2F)C1 > 30 µM, CC1=C(C(=O)N2CCCCC2)C(c2cccs2)C2=C(CCCC2=O)N1 (configuration not stated) > 30 µM, Cc1ccc2c(c1)C1CN(C)CCC1N2C(=S)Nc1ccc(Cl)cc1Cl (configuration not stated) > 30 µM, COc1cccc2cc(C(=O)CS(=O)(=O)c3ccc(C(C)(C)C)cc3)c(=O)oc12 > 30 µM, Nc1nc(Nc2cccc(Cl)c2)nc(NCc2ccco2)c1[N+](=O)[O-] > 30 µM, COc1ccc2c(c1)C(=O)Nc1cc(Cl)ccc1N2 > 30 µM, CC1(C)CC(=O)C=C(Nc2ccc(F)cc2F)C1 > 30 µM, COc1cc(C(=O)Nc2cccc(-c3nc4ncccc4o3)c2C)cc(OC)c1OC > 30 µM, Cc1ccccc1C(=O)Nc1ccc(O)c2c(=O)cc(-c3ccccc3Cl)oc12 > 30 µM, c1ccc(-c2nc(-c3ccco3)n3ccccc23)cc1 > 30 µM, O=c1cc(-c2ccccc2)oc2cc(O)cc(O)c12 > 30 µM, COc1cc(/C=N/NC(=O)c2ccc(O)cc2)ccc1Oc1ccc([N+](=O)[O-])cn1 > 30 µM
